Our source for the binding values is paper PMC11267527.

The chains behind the UniProt entries cited, without tags or fusion partners.
UniProt Q9UJ55: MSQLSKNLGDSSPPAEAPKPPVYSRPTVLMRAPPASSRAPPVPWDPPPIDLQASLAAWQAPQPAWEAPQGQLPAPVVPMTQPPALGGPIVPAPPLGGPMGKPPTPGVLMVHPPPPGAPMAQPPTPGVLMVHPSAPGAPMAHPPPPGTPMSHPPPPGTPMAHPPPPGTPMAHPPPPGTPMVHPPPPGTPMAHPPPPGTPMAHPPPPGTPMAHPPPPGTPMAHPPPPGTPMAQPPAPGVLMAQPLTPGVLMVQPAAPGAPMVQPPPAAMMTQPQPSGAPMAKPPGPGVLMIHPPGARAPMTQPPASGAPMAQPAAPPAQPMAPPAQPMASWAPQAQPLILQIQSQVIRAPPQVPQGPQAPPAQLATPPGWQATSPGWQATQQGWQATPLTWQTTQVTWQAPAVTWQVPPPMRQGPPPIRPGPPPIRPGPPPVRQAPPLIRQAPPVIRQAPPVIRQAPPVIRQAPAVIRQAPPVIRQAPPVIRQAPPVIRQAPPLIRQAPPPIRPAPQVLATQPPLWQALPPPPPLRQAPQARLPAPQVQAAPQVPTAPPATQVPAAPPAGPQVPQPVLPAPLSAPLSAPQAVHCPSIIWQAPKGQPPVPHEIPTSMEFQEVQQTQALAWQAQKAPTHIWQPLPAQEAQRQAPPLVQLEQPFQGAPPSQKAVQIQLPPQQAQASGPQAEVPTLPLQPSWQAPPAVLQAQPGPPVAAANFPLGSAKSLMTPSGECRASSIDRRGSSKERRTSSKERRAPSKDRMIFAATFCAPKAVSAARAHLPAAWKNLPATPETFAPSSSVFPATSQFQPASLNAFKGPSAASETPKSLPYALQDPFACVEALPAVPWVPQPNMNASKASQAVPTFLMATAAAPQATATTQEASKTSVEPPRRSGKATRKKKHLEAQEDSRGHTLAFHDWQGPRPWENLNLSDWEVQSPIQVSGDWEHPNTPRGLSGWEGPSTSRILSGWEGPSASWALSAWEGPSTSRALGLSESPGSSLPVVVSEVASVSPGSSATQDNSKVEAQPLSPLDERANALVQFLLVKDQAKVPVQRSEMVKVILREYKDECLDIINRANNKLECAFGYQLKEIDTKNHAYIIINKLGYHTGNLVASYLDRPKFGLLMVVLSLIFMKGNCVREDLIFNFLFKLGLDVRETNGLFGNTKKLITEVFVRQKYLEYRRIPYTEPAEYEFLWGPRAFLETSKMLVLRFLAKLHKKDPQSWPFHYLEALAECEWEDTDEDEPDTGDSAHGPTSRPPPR
UniProt Q16637: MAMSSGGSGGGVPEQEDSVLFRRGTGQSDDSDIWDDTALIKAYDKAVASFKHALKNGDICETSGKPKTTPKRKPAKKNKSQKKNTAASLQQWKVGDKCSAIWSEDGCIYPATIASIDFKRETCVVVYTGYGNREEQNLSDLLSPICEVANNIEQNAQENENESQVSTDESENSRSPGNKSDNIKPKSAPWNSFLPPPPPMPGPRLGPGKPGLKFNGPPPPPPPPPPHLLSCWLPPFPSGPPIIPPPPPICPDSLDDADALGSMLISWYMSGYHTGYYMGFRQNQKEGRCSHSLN

Results are given in words; binding and its absence hold for the method and conditions named. Binding seen in cells or lysates may run through a third protein. Some binding calls cover weakened binding; strength is not graded here.

The test addresses WT GFP-MAGEL2 (GFPspark fused N-terminally to full-length wild-type human MAGEL2) (human) (UniProt Q9UJ55). As to the kind of experiment: co-IP; GFP-CoIP with western blot: GFPspark-MAGEL2 fusions in HEK293T lysate, mouse anti-GFP antibody overnight at 4 C, Protein A beads, elution in Laemmli buffer, blots for endogenous proteins (n = 3). In general terms: A western blot detects proteins with antibodies after separation by electrophoresis.

Take “survival motor neuron protein (SMN) (from UniProt Q16637 1-294)”: the binding result is listed as “binds”.
